These are yes or no findings as the source states them, for the method shown. A result given as binding can be weak or reduced; the word gives no strength.
Experiments:
[1] = target: human CD73 (ecto-5'-nucleotidase) expressed at the cell surface (human); assay: flow cytometry titration on MDA-MB-231 cells, endogenous CD73 (FIG. 2)
[2] = target: cynomolgus CD73 expressed at the cell surface (cynomolgus); assay: flow cytometry titration on a cell line expressing cynomolgus CD73, PE-labelled secondary antibody
[3] = target: human CD73 (ecto-5'-nucleotidase) expressed at the cell surface (human); assay: flow cytometry titration on cells expressing wild type CD73 (FIG. 3A)
[4] = target: human CD73 (ecto-5'-nucleotidase) expressed at the cell surface (human); assay: flow cytometry titration on a cell line expressing human CD73, PE-labelled secondary antibody
[5] = target: human CD73 (ecto-5'-nucleotidase) expressed at the cell surface (human); assay: flow cytometry titration on HEK-293T cells transfected with wild type human CD73
[6] = target: human CD73 (ecto-5'-nucleotidase) expressed at the cell surface (human); assay: flow cytometry titration on human-CD73-expressing cell line
[7] = target: human CD73 (ecto-5'-nucleotidase) expressed at the cell surface (human); assay: flow cytometry titration on MDA-MB-231 cells (endogenous human CD73)
[8] = target: cynomolgus CD73 expressed at the cell surface (cynomolgus); assay: flow cytometry titration on cynomolgus-CD73-expressing cell line
[9] = target: human CD73 (ecto-5'-nucleotidase) expressed at the cell surface (human); assay: flow cytometry titration on MDA-MB-231 cells, endogenous CD73
[10] = target: cynomolgus CD73 expressed at the cell surface (cynomolgus); assay: flow cytometry titration on CD73-transfected cell lines (FIG. 1)
[11] = target: human CD73 (ecto-5'-nucleotidase) expressed at the cell surface (human); assay: as above
[12] = target: human CD73 (ecto-5'-nucleotidase) expressed at the cell surface (human); assay: flow cytometry titration on cells expressing wild type CD73 (FIG. 3B)

Measured: binding

B1: antibody 7H10 (antibody, human IgG1, V domains shown)
VH: DVQLQESGPGLVKPSQSLSLTCTVTGYSITSDYAWNWIRQFPGNKLEWMGYIIYSGSTSYNPSLNSRISITRDTSKNQFFLQLNSVTTEDTATYYCAREAYLYFDYWGQGTTLTVSS
VL: DIQMTQTTSSLSASLGDRVTISCRASQDINNYLNWYQQKPDGTVKLLIYYTSRLHSGVPSRFSGSGSGTDYSLTISNLEREDVATYFCQQGNTLPWTFGGGTKLEIK
binds: [1] | [2] | [3] | [4] | [5] | [6] | [7] | [8] | [9] | [10] | [11]

B2: antibody 12F9 (antibody, human IgG1, V domains shown)
VH: QVQLQQSGPELVKPGASVRISCKASGYTFTNYYIHWVKQRPGQGLEWIGWIYPGNVNTKYNEKFKGKATLTADKSSNTAYMQLSSLTSEDSAVYFCAREGGYDRYALDYWGQGTSVTVSS
VL: QIVLTQSPALMSASPGEKVTMTCSASSSVSYMYWYQQKPRSSPKPWIYLTSNLASGVPARFSGSGSGTSYSLTISSMEAEDAATYYCQQWSSNPLTFGAGTKLELK
binds: [2] | [4] | [5] | [6] | [7] | [8] | [12] | [10] | [11]
